According to publication PMC7592556:
No constants are given. Whether binding was seen depends on the method and setting. Binding seen in cells or lysates may run through a third protein. Here binding means that the protein was enriched with, or labelled near, the bait; the list need not be complete.

By UniProt entry, the sequences of proteins in these tests, tags left out. Where a name states a change or a piece, a line headed by the entry shows the natural chain unless it says otherwise. Residues count along the entry.
His6-SUMO fusion protein of the complete Shank3 N-terminus (SPN-Ank, residues 1-348) (Q9JLU4, residues 1-348): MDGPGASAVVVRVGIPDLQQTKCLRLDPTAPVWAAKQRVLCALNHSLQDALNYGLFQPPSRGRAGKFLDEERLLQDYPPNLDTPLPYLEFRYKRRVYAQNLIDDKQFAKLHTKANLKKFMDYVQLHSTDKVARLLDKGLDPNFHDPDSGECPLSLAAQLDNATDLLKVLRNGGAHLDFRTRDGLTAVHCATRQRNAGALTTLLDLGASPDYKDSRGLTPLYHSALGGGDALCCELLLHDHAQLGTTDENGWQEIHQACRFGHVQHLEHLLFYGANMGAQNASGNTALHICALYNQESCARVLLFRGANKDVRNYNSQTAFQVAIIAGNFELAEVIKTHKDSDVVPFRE
His6-SUMO fusion protein of the Shank3 Ank repeats (residues 99-348) (Q9JLU4, residues 99-348): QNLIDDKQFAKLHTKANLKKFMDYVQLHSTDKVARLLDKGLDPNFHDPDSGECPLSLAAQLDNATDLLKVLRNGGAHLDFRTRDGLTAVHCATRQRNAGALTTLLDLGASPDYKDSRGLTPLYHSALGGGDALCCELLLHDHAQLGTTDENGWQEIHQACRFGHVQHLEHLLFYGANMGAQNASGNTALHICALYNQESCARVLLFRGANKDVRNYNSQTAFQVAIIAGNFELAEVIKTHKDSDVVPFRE
UniProt P15116: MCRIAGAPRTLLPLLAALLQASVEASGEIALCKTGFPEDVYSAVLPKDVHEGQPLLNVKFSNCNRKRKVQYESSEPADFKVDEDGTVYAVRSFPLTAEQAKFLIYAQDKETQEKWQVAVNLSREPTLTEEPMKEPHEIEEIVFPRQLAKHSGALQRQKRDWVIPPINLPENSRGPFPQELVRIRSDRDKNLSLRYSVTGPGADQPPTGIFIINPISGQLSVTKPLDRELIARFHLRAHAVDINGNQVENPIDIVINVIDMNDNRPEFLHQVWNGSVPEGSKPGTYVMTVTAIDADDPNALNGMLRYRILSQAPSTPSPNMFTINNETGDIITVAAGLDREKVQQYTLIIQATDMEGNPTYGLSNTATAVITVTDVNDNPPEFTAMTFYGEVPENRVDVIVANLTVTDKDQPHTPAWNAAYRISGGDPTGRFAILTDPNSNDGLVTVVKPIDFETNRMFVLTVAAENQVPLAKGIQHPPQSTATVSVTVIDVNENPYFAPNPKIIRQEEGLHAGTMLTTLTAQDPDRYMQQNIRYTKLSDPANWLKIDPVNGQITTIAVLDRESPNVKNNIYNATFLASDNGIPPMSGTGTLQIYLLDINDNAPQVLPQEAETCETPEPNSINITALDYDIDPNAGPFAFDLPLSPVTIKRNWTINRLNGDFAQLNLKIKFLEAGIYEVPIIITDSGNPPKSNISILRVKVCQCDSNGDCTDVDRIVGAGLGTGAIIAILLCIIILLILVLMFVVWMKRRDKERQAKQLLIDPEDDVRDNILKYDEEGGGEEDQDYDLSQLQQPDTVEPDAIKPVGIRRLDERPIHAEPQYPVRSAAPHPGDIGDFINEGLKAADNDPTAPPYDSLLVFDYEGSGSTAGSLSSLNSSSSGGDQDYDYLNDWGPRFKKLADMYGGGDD
UniProt P97434: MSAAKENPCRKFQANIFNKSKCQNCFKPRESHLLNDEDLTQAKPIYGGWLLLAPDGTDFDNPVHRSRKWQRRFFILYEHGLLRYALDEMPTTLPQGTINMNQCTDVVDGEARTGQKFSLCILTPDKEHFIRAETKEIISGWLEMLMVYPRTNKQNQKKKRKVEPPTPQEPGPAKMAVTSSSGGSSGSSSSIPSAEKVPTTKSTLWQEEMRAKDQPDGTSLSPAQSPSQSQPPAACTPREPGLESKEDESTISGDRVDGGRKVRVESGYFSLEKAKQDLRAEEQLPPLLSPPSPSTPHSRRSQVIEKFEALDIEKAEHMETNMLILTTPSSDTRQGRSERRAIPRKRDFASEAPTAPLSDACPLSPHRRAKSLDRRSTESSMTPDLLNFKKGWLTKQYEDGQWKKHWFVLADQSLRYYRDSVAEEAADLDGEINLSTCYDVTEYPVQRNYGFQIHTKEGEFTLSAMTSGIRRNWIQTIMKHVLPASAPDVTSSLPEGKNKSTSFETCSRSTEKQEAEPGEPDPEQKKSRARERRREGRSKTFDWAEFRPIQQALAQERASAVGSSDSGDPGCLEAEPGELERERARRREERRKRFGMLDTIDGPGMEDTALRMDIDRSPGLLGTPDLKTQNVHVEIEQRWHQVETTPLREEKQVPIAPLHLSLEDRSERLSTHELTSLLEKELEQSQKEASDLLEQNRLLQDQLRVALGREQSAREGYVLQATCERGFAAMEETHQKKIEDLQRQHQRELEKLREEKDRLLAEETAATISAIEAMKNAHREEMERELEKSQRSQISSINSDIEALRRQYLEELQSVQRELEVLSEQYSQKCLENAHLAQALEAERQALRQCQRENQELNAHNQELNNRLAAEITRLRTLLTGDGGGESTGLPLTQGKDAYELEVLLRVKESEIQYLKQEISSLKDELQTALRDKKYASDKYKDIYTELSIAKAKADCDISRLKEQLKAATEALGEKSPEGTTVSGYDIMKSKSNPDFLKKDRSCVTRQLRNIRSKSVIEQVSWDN
UniProt O55017: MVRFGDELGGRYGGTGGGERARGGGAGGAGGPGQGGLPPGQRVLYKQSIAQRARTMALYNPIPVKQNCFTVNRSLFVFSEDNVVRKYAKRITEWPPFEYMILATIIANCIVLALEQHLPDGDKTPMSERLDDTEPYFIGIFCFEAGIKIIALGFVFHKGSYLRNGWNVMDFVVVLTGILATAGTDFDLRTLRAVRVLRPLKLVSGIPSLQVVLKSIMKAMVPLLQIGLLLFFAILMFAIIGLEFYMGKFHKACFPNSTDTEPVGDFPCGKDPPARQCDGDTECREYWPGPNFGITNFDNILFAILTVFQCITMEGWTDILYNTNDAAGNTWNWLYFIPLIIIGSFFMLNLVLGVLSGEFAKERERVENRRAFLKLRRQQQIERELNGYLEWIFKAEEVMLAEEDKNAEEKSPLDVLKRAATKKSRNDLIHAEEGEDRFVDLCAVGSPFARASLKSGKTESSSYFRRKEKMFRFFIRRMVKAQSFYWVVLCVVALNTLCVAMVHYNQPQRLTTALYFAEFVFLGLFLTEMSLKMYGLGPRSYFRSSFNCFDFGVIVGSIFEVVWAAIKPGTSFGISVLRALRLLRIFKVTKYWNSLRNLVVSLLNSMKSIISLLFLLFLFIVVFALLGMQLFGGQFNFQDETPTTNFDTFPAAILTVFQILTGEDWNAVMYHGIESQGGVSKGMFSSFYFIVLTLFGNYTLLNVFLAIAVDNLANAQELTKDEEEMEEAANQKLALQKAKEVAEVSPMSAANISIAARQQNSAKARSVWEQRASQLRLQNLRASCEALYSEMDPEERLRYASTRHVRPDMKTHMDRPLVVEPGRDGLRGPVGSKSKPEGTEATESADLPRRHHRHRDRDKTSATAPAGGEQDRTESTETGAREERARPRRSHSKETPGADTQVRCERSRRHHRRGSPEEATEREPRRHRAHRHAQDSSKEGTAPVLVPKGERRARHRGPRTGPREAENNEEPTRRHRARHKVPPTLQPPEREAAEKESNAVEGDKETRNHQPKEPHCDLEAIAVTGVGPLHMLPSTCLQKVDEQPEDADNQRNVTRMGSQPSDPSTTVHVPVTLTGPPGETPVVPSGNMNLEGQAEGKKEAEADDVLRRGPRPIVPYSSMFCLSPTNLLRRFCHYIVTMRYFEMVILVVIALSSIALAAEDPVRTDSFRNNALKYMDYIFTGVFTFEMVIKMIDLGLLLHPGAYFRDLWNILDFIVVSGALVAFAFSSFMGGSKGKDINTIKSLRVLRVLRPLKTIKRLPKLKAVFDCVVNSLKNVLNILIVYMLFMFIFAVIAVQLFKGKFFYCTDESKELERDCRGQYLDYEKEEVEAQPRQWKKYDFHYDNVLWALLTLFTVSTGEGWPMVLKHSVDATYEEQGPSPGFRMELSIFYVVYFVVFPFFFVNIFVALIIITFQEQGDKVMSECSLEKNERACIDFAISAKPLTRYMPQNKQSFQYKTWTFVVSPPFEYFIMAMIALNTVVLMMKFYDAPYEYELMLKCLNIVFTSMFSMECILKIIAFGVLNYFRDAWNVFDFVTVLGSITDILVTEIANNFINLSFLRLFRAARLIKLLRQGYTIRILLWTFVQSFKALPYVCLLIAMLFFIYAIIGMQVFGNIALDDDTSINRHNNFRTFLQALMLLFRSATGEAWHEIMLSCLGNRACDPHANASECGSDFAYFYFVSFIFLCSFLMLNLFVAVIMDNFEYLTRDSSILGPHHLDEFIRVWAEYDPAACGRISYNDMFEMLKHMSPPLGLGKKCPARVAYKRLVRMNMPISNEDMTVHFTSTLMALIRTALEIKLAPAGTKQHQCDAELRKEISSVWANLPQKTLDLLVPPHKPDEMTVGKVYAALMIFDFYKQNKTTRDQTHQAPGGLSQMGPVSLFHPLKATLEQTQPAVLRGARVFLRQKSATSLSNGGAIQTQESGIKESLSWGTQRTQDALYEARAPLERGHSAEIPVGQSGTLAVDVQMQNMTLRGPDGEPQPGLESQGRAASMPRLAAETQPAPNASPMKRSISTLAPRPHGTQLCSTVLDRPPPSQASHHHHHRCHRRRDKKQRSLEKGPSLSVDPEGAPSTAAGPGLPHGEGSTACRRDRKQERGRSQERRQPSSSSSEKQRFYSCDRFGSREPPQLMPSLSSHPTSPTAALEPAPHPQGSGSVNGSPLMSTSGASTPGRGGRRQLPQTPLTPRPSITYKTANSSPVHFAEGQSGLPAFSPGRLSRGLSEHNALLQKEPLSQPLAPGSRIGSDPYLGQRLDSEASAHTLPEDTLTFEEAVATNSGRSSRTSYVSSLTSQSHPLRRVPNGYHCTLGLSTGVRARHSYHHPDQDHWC

Columns and labels:
[1] = molecular target: His6-SUMO fusion protein of the complete Shank3 N-terminus (SPN-Ank, residues 1-348) (rat) (UniProt Q9JLU4); test: affinity purification with mass spectrometry; His6-SUMO-Shank3 fragments (SPN-Ank or Ank only) coupled to NHS-Sepharose; mouse forebrain PSD fraction solubilised in DOC buffer (50 mM Tris pH 9.0, 1% Na-deoxycholate); 2 h, 5 washes; LC-MS/MS, LFQ intensities compared with a SUMO matrix; four purifications (two SPN-Ank, two Ank only); only the target purified
[2] = molecular target: His6-SUMO fusion protein of the Shank3 Ank repeats (residues 99-348) (rat) (UniProt Q9JLU4); test: as above

With “Arf-GAP with GTPase, ANK repeat and PH domain-containing protein 2 (from UniProt Q3UHD9 1-1186)” the binding [1] was “binds” and the binding [2] was “binds”.

With “Arf-GAP with GTPase, ANK repeat and PH domain-containing protein 3 (from UniProt Q8VHH5 1-910)” the binding [1] was “binds” and the binding [2] was “binds”.

Cadherin-2 (from UniProt P15116) was tested, and the binding [1] was “binds” and the binding [2] was “binds”.

For “Dynactin subunit 1 (from UniProt O08788 1-1281)”, the binding [1] was “binds” and the binding [2] was “binds”.

For “Myosin phosphatase Rho-interacting protein (from UniProt P97434 1-1024)”, the binding [1] was “binds” and the binding [2] was “binds”.

In the case of “Probable ubiquitin carboxyl-terminal hydrolase FAF-X (from UniProt P70398 1-2559)”, the binding [1] is reported as “binds” and the binding [2] is reported as “binds”.

With “Ras/Rap GTPase-activating protein SynGAP (from UniProt F6SEU4 1-1340)” the binding [1] was “binds” and the binding [2] was “binds”.

With “Rho GTPase-activating protein 39 (from UniProt P59281 1-1107)” the binding [1] was “binds” and the binding [2] was “binds”.

“Versican core protein (from UniProt Q62059 24-3357)” was tested, and the binding [1] was “binds” and the binding [2] was “binds”.

In the case of “Voltage-dependent N-type calcium channel subunit alpha-1B (from UniProt O55017 1-2327)”, the binding [1] is reported as “binds” and the binding [2] is reported as “binds”.

“Voltage-dependent R-type calcium channel subunit alpha-1E (from UniProt Q61290 1-2272)” was tested, and the binding [1] was “binds” and the binding [2] was “binds”.

B1: Armadillo repeat protein deleted in velo-cardio-facial syndrome (protein, UniProt P98203 1-962)
chain: MEDCNVHSAASILASVKEQEARFERLTRALEQERRHVALQLERAQQPGMSSGGMVGSGQPLPMAWQQLVLQEQSPGSQASLATMPEAPEVLEETVTVEEDPGTPTSHVSIVTSEDGTTRRTETKVTKTVKTVTTRTVRQVPLGPDGLPLLDGGPPLGSFADGPLDRHYLLRGGGGPAATLSRTYHSSGGGFPDGPESRDIPSYGSLSRGLGVRPPRTGLLGPGPGDGCFTLPGRREAFPMGSESGPPSGRSLPEHFQAEPYGLEDDTRSLAADDEGGPDLEPDYSTATRRRPEYGRGLRARAFEDTADDAGELIEERPPFPAATAPLAQPERGSLGSLDRVVRRSPSVDSTRKEPRWRDPELPEVLAMLRHPVDPVKANAAAYLQHLCFENEGIKRRVRQLRGLPLLVALLDHPRAEVRRRACGALRNLSYGRDTDNKAAIRDCGGVPALVRLLRAARDNEVRELVTGTLWNLSSYEPLKMVIIDHGLQTLTHEVIVPHSGWEREPNEDSKPRDAEWTTVFKNTSGCLRNVSSDGAEARRRLRECEGLVDALLHALQSAVGRKDTDNKSVENCVCIMRNLSYHVHKEVPGADRYQEAEPGIPGSTTSQRRRKDDASCFGGKKAKEEWFHQGKKDAEMDRNFDTLDLPKRTEAAKGFELLYQPEVVRLYLSLLTESRNFNTLEAAAGALQNLSAGNWTWATYIRATVRKERGLPVLVELLQSETDKVVRAVAIALRNLSLDQRNKDLIGSYAMTELVRNVRNAQAPAHPSAHLEEDTVVAVLNTIHEIVSDSLDNARSLLQARGVPALVALVASSQSVREAKAASHVLQTVWSYKELRGALQRDGWTKSRFQSASTAKGPKGTPSSGGFDDSTLPLVDKSLDGEKSNTRDVIPMDTLGPDGYATVDRRERRTLGSDSTGDTSEKELLRPDPGRKAPPPGPSRPSVRLVDAVGDTKPQPVDSWV
For B1, the binding [1] was “binds” and the binding [2] was “binds”.

B2: F-box only protein 41 (protein, UniProt Q6NS60 1-873)
chain: MASLDLPYRCPRCGEHKRFRSLSSLRAHLEYSHTYETLYILSKTNSICDGAAAAAAAAAAASGFPLAPEPAALLAVPGARREVFESTSFQGKEQATGPSPAGPHLLHHHHHHAPLAHFPADLVPASLPCEELAEPGLVPAARYALREIEIPLGELFARKSVASSACSTPPPGPGPGPCSGPSSASPASPSPADVAYEEGLARLKIRALEKLEVDRRLERLSEEVEQKIAGQVGRLQAELERKAAELETARQESARLGREKEELEERASELSRQVDVSVELLASLKQDLVHKEQELSRKQQEVVQIDQFLKETAAREASAKLRLQQFIEELLERADRAERQLQVISSSCGSTPSASLGRGGGGSASGPGVRGPGRMREHHAGSAVPSTYAVSRHGSSPSTGASSRVPAASQSSGCYDSDSLELPRPEEGPSEDSGPGGLGSRAQATNGGSERSQAPRSSGLRRQAIQNWQRRPRRHSTEGEEGDVSDVGSRTTESEAEGPSDVPRPGPAVAGPLNSCRLSARPEGGSGRGRRVERGSPSRSNEVISPEILKMRAALFCIFTYLDTRTLLHAAEVCRDWRFVARHPAVWTRVLLENARVCSKFLAMLAQWCTQAHSLTLQNLKPRQRGKKESKEEYARSTRGCLEAGLESLLKAAGGNLLILRISHCPNILTDRSLWLASCYCRALQAVTYRSATDPVGHEVIWALGAGCRDIVSLQVAPLHPCQQPTRFSNRCLQMIGRCWPHLRALGVGGAGCGVQGLASLARNCMRLQVLELDHVSEITQEVAAEVCREGLKGLEMLVLTATPVTPKALLHFNSICRNLKSIVVQIGIADYFKEPSSPEAQKLFEDMVTKLQALRRRPGFSKILHIKVEGGC
B2 was tested, and the binding [1] was “binds” and the binding [2] was “binds”.

B3: Disks large-associated protein 4 (protein, UniProt B1AZP2 1-992)
chain: MKGLGDSRPRHLSDSLDPPHEPLFAGPDRNPYLLSPTEAFAREARFPGQNTLPGDGLFPLNNQLPPPSSTFPRIHYNSHFEVPEESPFPSHAQATKINRLPANLLDQFEKQLPIHRDGFSTLQFPRGEAKARGESPGRIRHLVHSVQRLFFTKAPSMEGTAGKVGGNGSKKGGLEDGKGRRAKSKERAKAGEPKRRSRSNISGWWSSDDNLDGEGGAFRSGPASGLMTLGRQQERTQPRYFMHAYNTISGHMLKTTKNTTTELTAPPPPPAPPATCPSLGVGTDTNYVKRGSWSTLTLSHAHEVCQKTSATLDKSLLKSKSCHQGLAYHYLQVPGGGGEWSTTLLSPRDMDSTAEGPIPCRRMRSGSYIKAMGDEDSDESGGGSPKPSPKTAARRQSYLRATQQSLGEQSNPRRSLDRLDSVDMLLPSKCPSWEDDYNPISDSLNDSSCISQVFGQASLIPQLFGHDQQVREADLSDQYEAACESACSEAESTTAEALDLPLPSYFRSRSHSYLRAIQAGCSQEEDSVSLQSLSPPPSTGSLSNSRTLPSSSCLVAYKKTPPPVPPRTTSKPFISVTVQSSTESAQDTYLDSQDHKSEVTSQSGLSNSSDSLDSSTRPPSVTRGGITPGPEAPEPPPKHAALKSEQGTLTSSESHSEAIPKRKLSSIGIQVDCIQPVPKEEPSPATKFQSIGIQVEDDWRSSAPSHSMSSRRDTDSDTQDANDSSCKSSERSLPDCTSHPNSISIDAGPRQAPKIAQIKRNLSYGDNSDPALEASSLPPPDPWLETSSSSPAEPAQPGACRRDGYWFLKLLQAETERLEGWCCQMDKETKENNLSEEVLGKVLSAVGSAQLLMSQKFQQFRGLCEQNLNPDANPRPTAQDLAGFWDLLQLSIEDISMKFDELYHLKANSWQLVETPEKRKEEKKPPPPVPKKPAKSKAAVSRDKASDAGDKQRQEARKRLLAAKRAASVRQNSATESADSIEIYVPEAQTRL
B3 was tested, and the binding [1] was “binds” and the binding [2] was “binds”.

B4: Synaptosomal-associated protein 47 (protein, UniProt Q8R570 1-413)
chain: MSSDMRVHSWSCSYYLDLEKQWVSGKLTLTPHSLKFIVEKTEEVLVGLPLSSIIEIRKESSLFIFGAITVLEKGQTKHWFSSLQPSRNVVFNVIEHFWRELLLSQPGTAANIPSHVTRGQELIGLMANSQKRMEDTAKDLQQQSEQLDSVLKGLEKMESDLDVADRLLTELETPSWWPFGSKFWKMPAEENLKEGVSSTCEPFGKEGVVITVPAIISERAESHSKLGKLTVLVSALEIYDSCSLLLHRFEKEDVDDIKVHSPYEVSIRQRFIGKPDVAYQLISAKMPEVIPILEVQFSSKIELLEDALVLRNKVFASSAERHAASRPKGCTPHRELPTGGQEGEQLQLQKNLPLFSEGEAQELTQILSKMKGLALDTEAELERQDAALDGITVAVDRATLNVDKQNRRMRKLM
In the case of B4, the binding [1] is reported as “binds” and the binding [2] is reported as “binds”.

B5: Claudin-11 (protein, UniProt Q60771 1-207)
chain: MVATCLQVVGFVTSFVGWIGIIVTTSTNDWVVTCSYTIPTCRKMDELGSKGLWADCVMATGLYHCKPLVDILILPGYVQACRALMIAASVLGLPAILLLLTVLPCIRMGHEPGVAKYRRAQLAGVLLILLALCAIVATIWFPVCAHREITIVSFGYSLYAGWIGAVMCLVGGCVIVCCSGDAQSFGENRFYYSSGSSSPTHAKSAHV
With B5 the binding [1] was “binds” and the binding [2] was “binds”.

B6: 14-3-3 protein sigma (protein, UniProt O70456 1-248)
chain: MERASLIQKAKLAEQAERYEDMAAFMKSAVEKGEELSCEERNLLSVAYKNVVGGQRAAWRVLSSIEQKSNEEGSEEKGPEVKEYREKVETELRGVCDTVLGLLDSHLIKGAGDAESRVFYLKMKGDYYRYLAEVATGDDKKRIIDSARSAYQEAMDISKKEMPPTNPIRLGLALNFSVFHYEIANSPEEAISLAKTTFDEAMADLHTLSEDSYKDSTLIMQLLRDNLTLWTADSAGEEGGEAPEEPQS
With B6 the binding [1] was “binds” and the binding [2] was “binds”.
